Experimental data published in patent US20040234962A1, “Multicoated or multilayer entrapment matrix for protein biosensor” (priority 2003, published 2004).

Assay: Ligand masking: IANBD dye labeling of GGBP mutants with and without glucose
[1] = Table 1, IANBD labeling without glucose
[2] = Table 1, final concentration glucose 99 mM
[3] = Table 1, final concentration glucose 107 mM

| Substance | Dye: Protein Ratio, - glucose [1] | Dye: Protein Ratio, + glucose [2] | Dye: Protein Ratio, + glucose [3] | further results |
| --- | --- | --- | --- | --- |
| L238C: GGBP mutant, cysteine substituted for leucine at position 238 | 0.5 | 0.2 | – | – |
| A213C: GGBP mutant, cysteine substituted for alanine at position 213 | 1.3 | 0.4 | – | – |
| E149C/A213R/L238S: GGBP triple mutant: cysteine at 149, arginine at 213, serine at 238 | 1 | – | 1 | – |
| E149C: GGBP mutant, cysteine substituted for glutamic acid at position 149 | 0.3 | – | – | Dye: Protein Ratio, + glucose (Table 1, final concentration glucose 16 mM): 0.3 |
| A213C/L238C: GGBP double mutant: cysteine at position 213 and cysteine at position 238 | 1.8 | – | 1.2 | – |
| E149C/A213C/L238C: GGBP triple mutant: cysteines at positions 149, 213 and 238 | – | – | – | Dye: Protein Ratio, + glucose (Table 2, final concentration glucose 87 mM): 2; Dye: Protein Ratio, - glucose (Table 2, labeling without glucose): 2.8 |
